# Measured values: the supplement of paper PMC8256030
# “And” between values parts separate entries of the source, which are not always exact repeats. Identical values can stand only once. The list shows a part of the results. Repeats in this data set agree poorly, so a single value says little.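 HEK293T cells were given each compound shortly before transfection with a reporter in which red mCherry is followed by the SARS-CoV-2 frameshift element and then GFP in the −1 frame, so GFP appears only after frameshifting.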
# System: SARS-CoV-2 -1 PRF reporter mCherry-FSE-GFP(-1)
# Experiment: mCherry (red) intensity as percent of control; higher = higher upstream reporter expression
# Conditions: 10 µM; 24 h; HEK293T
row,SMILES,mCherry
1,C/C(=C\C(=O)O)C1CCCCC1 [cicrotoic acid],96.9%
2,N#CC(c1ccc(Cl)cc1)c1ccc(-n2ncc(=O)[nH]c2=O)cc1Cl (stereo not given) [clazuril],107%
3,C[C@H](N)C(=O)N[C@@H](C)P(=O)(O)O [alafosfalin],98.4%
4,O=C(Nc1ccccc1)OCC(CN1CCCCC1)OC(=O)Nc1ccccc1 (stereo not given),105%
5,CCCC(CCC)C(N)=O [valpromide],81.1%
6,CCNCc1c(CSC)cnc(C)c1O [tamitinol],129%
7,CN1CCN(C2=Nc3cc(Cl)ccc3Nc3ccccc32)CC1 [clozapine],113%
8,CC(=O)Nc1ccccc1,102%
9,O=S(=O)(O)c1cc(I)c(O)c2ncccc12 [chiniofon],98.6%
10,CC1(C)Oc2ccc(C#N)cc2[C@H](N2CCCC2=O)[C@H]1O [cromakalim],99.5%
11,COc1ccc(C(=O)CCC(=O)O)c2ccccc12 [menbutone],80.3%
12,CC(C)[C@H](N)C(=O)O [valine],86.1%
13,Cc1oc2nc3c(c(NC(=O)CN4CCCC4=O)c2c1C)CCCC3 [coluracetam],106%
14,CCOC(=O)C1=C[C@@H](OC(CC)CC)[C@H](NC(C)=O)[C@@H](N)C1,111%
15,O=C[C@H](O)[C@H]1OC(=O)[C@@H](O)[C@H]1O [glucurolactone],84.5%
16,CSCC[C@H](N)C(=O)O [methionine],111%
17,O=C1[C@H](CC[C@H](O)c2ccc(F)cc2)[C@@H](c2ccc(O)cc2)N1c1ccc(F)cc1 [ezetimibe],100%
18,CC1Cc2ccccc2N1NC(=O)c1ccc(Cl)c(S(N)(=O)=O)c1 (stereo not given) [indapamide],96.5% and 110%
19,CCC(C)C(CC)C(N)=O (stereo not given) [valnoctamide],88.8%
20,C[C@@H]1CCC[C@H](C)N1NC(=O)c1ccc(Cl)c(S(N)(=O)=O)c1 [clopamide],91.9%

row,SMILES,mCherry
1,CC1=C(C(=O)OC(C)C)C(c2cccc([N+](=O)[O-])c2)C(C(=O)OC2CN(C(c3ccccc3)c3ccccc3)C2)=C(N)N1 (stereo not given) [azelnidipine],75.5%
2,CCC(C)(Oc1ccc(C2(c3ccc(OC(C)(CC)C(=O)O)cc3)CCCCC2)cc1)C(=O)O (stereo not given) [clinofibrate],78.7%
3,CCCCC(CC)COC(=O)C(C#N)=C(c1ccccc1)c1ccccc1 (stereo not given) [octocrilene],20.4%
4,N#Cc1ccc(C2CCCc3cncn32)cc1 (stereo not given) [fadrozole],107%
5,CCCN[C@H]1CCc2nc(N)sc2C1 [Pramipexole],78.5%
6,C=CC1=C(C(=O)O)N2C(=O)[C@@H](NC(=O)/C(=N\O)c3csc(N)n3)[C@H]2SC1 [Omnicef],105%
7,CC[C@]12CN3CCc4c([nH]c5ccccc45)[C@@](C(=O)OC)(c4cc5c(cc4OC)N(C=O)[C@H]4[C@@](O)(C(=O)OC)[C@H](OC(C)=O)[C@]6(CC)C=CCN7CC[C@]54[C@@H]76)C[C@@H](C3)[C@H]1O2 [vinformide],106%
8,Cc1cccc(C)c1NC(=O)C1CCCCN1C (stereo not given) [mepivacaine],105%
9,O=C1C(=O)c2ccccc2C(O)=C1C1CCC(c2ccc(Cl)cc2)CC1 (stereo not given) [Atovaquone],113%
10,O=C(O)CCc1nc2ccccc2[nH]1 [procodazole],105%
11,COc1ccc(C2CNC(=O)NC2)cc1O[C@H]1C[C@@H]2CC[C@H]1C2 [atizoram],110%
12,C=CS(=O)(=O)O [apolate],93.9%
13,C[C@]12CC[C@@H](O)C[C@@H]1CC[C@H]1[C@@H]3CC[C@H](C(=O)CO)[C@@]3(C)CC(=O)[C@@H]12 [alfadolone],92.2%
14,C[C@@H]1C[C@H]2[C@@H]3CCC4=CC(=O)C=C[C@]4(C)[C@@]3(F)[C@@H](O)C[C@]2(C)[C@@]1(O)C(=O)COP(=O)(O)O,102%
15,Cn1c(=O)c2c(ncn2CCCNCC(O)c2cc(O)cc(O)c2)n(C)c1=O (stereo not given) [reproterol],104%
16,O=P1(NCCCl)OCCCN1CCCl (stereo not given) [ifosfamide],107% and 95%
17,CC1(C)[C@@H](O)CC[C@]2(C)[C@H]3C(=O)C=C4[C@@H]5C[C@@](C)(C(=O)O)CC[C@]5(C)CC[C@@]4(C)[C@]3(C)CC[C@@H]12,49.1%
18,CCCCCCCCCCCCCCCCCC(=O)OC[C@@H](O)[C@H]1OC[C@H](O)[C@H]1O [sorbitan stearate],80.4%
19,COc1cc(C(=S)N2CCOCC2)ccc1O [vanitiolide],95.9%
20,CCOc1ccc(NC(C)=O)cc1 [phenacetin],117%
